Data on 43 compounds can be found in the supplement of paper PMC10735217.

Counter-ions that a name gives are not always drawn. Some of the results follow. Repeats in this data set agree poorly, so a single value says little.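 The human kidney-derived cells carry a stably integrated construct of eight TEAD-binding elements driving luciferase, read by luminescence in a drug-repurposing library screen. A compound counts as a hit when its signal is more than five robust Z scores above the plate mean.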

The test system of this assay is HEK293A TEAD-LUC reporter. The assay is described as follows: TEAD-luciferase reporter activity (YAP activation), robust Z score vs plate; higher = stronger YAP/TEAD activation. The conditions noted are these: 24 h. Background: In a reporter assay the amount or activity of a reporter protein is the signal.

`C=C(NNC(=O)c1ccncc1)c1ccco1`: the TEAD-luciferase reporter activity is inactive: 0.228 (compound concentration: 200 nM), inactive: -1.69 (compound concentration: 2 uM) and inactive: 2.31 (compound concentration: 10 uM).
For `CN1CCN(c2ccc(-c3cccc(CN4CCOCC4)c3)cc2NC(=O)c2c[nH]c(=O)cc2C(F)(F)F)CC1`, in that order: inactive: -0.805, inactive: 0.716 and inactive: 0.998.
`CCCCC1CCN(CCCC(=O)c2ccccc2C)CC1`: the TEAD-luciferase reporter activity runs as follows: (compound concentration: 200 nM) inactive: -1.47; (compound concentration: 10 uM) inactive: -1.86.
Turning to `CCN(CC)CCn1c(-c2ccccc2)noc1=N`, the TEAD-luciferase reporter activity is inactive: -0.00721 (compound concentration: 200 nM), inactive: 2.14 (compound concentration: 2 uM) and inactive: -1.22 (compound concentration: 10 uM).
As for `O=C(O)CC(O)CC(O)/C=C/c1c(C2CC2)nc2ccccc2c1-c1ccc(F)cc1` (stereo not given) [pitavastatin calcium], under “compound concentration: 2 uM”, the TEAD-luciferase reporter activity was inactive: -2.03.
In the case of `O=C(O)CC(O)CC(O)/C=C/c1c(C2CC2)nc2ccccc2c1-c1ccc(F)cc1` (stereo not given) [pitavastatin calcium, Kowa], the TEAD-luciferase reporter activity reads like this: (compound concentration: 200 nM) inactive: -1.03; (compound concentration: 10 uM) inactive: -0.404.
As to `O=[N+]([O-])c1cncn1CCN1CCOCC1` [nimorazole], the TEAD-luciferase reporter activity (compound concentration: 200 nM) was inactive: -0.0253, the TEAD-luciferase reporter activity (compound concentration: 2 uM) is inactive: -1.91 and the TEAD-luciferase reporter activity (compound concentration: 10 uM) was inactive: 0.602.
`COc1ccccc1C(=O)NC1CCN(C(=O)c2ccc(-c3ccccc3OC)cc2)CC1`: the TEAD-luciferase reporter activity (compound concentration: 200 nM) is inactive: -2.72 and the TEAD-luciferase reporter activity (compound concentration: 10 uM) was inactive: 2.4.
Turning to `CCOC(=O)C(N)/C=C(\C)CP(=O)(O)O` (stereo not given), the TEAD-luciferase reporter activity was inactive: -0.221 (compound concentration: 200 nM), inactive: 0.693 (compound concentration: 2 uM) and inactive: 0.474 (compound concentration: 10 uM).
Take `C#CC1(OCC(O)CN2CCN(c3ccccc3OC)CC2)CCCCC1` (stereo not given): the TEAD-luciferase reporter activity (compound concentration: 200 nM) is inactive: 0.74, the TEAD-luciferase reporter activity (compound concentration: 2 uM) is inactive: 0.989 and the TEAD-luciferase reporter activity (compound concentration: 10 uM) was inactive: 3.39.
Take `NCC(=O)CCC(=O)OCc1ccccc1` [Aminolevulinic acid benzyl ester]: the TEAD-luciferase reporter activity (compound concentration: 200 nM) is inactive: 0.702, the TEAD-luciferase reporter activity (compound concentration: 2 uM) is inactive: -0.161 and the TEAD-luciferase reporter activity (compound concentration: 10 uM) is inactive: 2.86.
For `CCCCCn1c(=O)c2[nH]c(Cl)nc2n(CCCCC)c1=O`, in that order: inactive: -0.669, inactive: 3.36 and inactive: -0.0539.
For `Cc1cccc(C)c1NCCNCC(O)COc1cccc2[nH]ncc12` (stereo not given) [neraminol], in that order: inactive: -0.164, inactive: -0.157 and inactive: 1.56.
As for `O=C1O[C@]2(CC[C@@H](C(=O)Nc3ccn(-c4ccccc4F)n3)CC2)c2cnccc21`, the TEAD-luciferase reporter activity is inactive: 0.287 (compound concentration: 200 nM), inactive: 0.235 (compound concentration: 2 uM) and inactive: -0.261 (compound concentration: 10 uM).
`CN(CC1CCCCC1)C1CCc2ccccc21` (stereo not given): the TEAD-luciferase reporter activity by setting is: (compound concentration: 200 nM) inactive: -0.219; (compound concentration: 10 uM) inactive: 0.927.
In the case of `CC(=O)CC(c1ccc([N+](=O)[O-])cc1)c1c(O)c2ccccc2oc1=O` (stereo not given) [Acenocoumarol], the TEAD-luciferase reporter activity is, setting by setting: (compound concentration: 200 nM) inactive: -0.583; (compound concentration: 2 uM) inactive: -2.2; (compound concentration: 10 uM) inactive: 1.67.
For `CN/C(=N\C#N)NCCSCc1nc[nH]c1C` [cimetidine], in that order: inactive: -0.83, inactive: 2 and inactive: 1.02.
For `CCN[C@@H]1C[C@H](N)C(O[C@H]2O[C@H](CN)CCC2N)[C@H](O)[C@H]1O[C@H]1OC[C@](C)(O)[C@H](NC)[C@H]1O` (stereo not given in full) [Etimicin Sulfate], in that order: inactive: -1.1, inactive: -0.497 and inactive: -0.355.
For `CC[C@@]1(O)C(=O)OCc2c1cc1n(c2=O)Cc2c-1nc1ccccc1c2CCNC(C)C` [Belotecan Hydrochloride], in that order: inactive: -0.879, inactive: -2.04 and inactive: -1.88.
Regarding `CC1=C(C(=O)O)N2C(=O)C(NC(=O)C(N)c3ccccc3)C2SC1` (stereo not given) [cefalexin HCl monohydrate], the TEAD-luciferase reporter activity was inactive: -0.757 (compound concentration: 200 nM), inactive: 0.515 (compound concentration: 2 uM) and inactive: -1.18 (compound concentration: 10 uM).
For `CO[C@H]1C=CO[C@@]2(C)Oc3c(C)c(O)c4c(O)c(c(/C=N/N5CCN(C6CCCC6)CC5)c(O)c4c3C2=O)NC(=O)/C(C)=C\C=C/[C@H](C)[C@H](O)[C@@H](C)[C@@H](O)[C@@H](C)[C@H](OC(C)=O)[C@@H]1C` [Rifapentine (Priftin)], the TEAD-luciferase reporter activity (compound concentration: 200 nM) is inactive: 0.695 and the TEAD-luciferase reporter activity (compound concentration: 10 uM) is inactive: 2.04.
As for `CO[C@H]1C=CO[C@@]2(C)Oc3c(C)c(O)c4c(O)c(c(/C=N/N5CCN(C6CCCC6)CC5)c(O)c4c3C2=O)NC(=O)/C(C)=C\C=C/[C@H](C)[C@H](O)[C@@H](C)[C@@H](O)[C@@H](C)[C@H](OC(C)=O)[C@@H]1C` [Rifapentine], the TEAD-luciferase reporter activity (compound concentration: 2 uM) was inactive: 0.141.
Consider `O=C(/C=C/c1ccc(F)cc1)NC[C@@H]1CN(c2ccc(N3CCOCC3)c(F)c2)C(=O)O1`, for which the TEAD-luciferase reporter activity runs as follows: (compound concentration: 200 nM) inactive: -0.213; (compound concentration: 2 uM) inactive: -0.496; (compound concentration: 10 uM) inactive: 2.32.
For `CC(C)[C@H](NC(=O)NCC(C)(C)O)C(=O)N1CC[C@](O)(c2ccc(Cl)cc2)C(C)(C)C1`, in that order: inactive: -0.134, inactive: 0.463 and inactive: -0.274.
With `CCOCCn1c(C2CCN(CCc3ccc(C(C)(C)C)cc3)CC2)nc2ccccc21`, the TEAD-luciferase reporter activity (compound concentration: 200 nM) is inactive: 0.289, the TEAD-luciferase reporter activity (compound concentration: 2 uM) was inactive: 2.03 and the TEAD-luciferase reporter activity (compound concentration: 10 uM) is inactive: 2.22.
For `COCCNCCc1cccc(Nc2ncc3c(n2)-c2ccccc2[C@@H](c2ccccc2F)C3)c1`, in that order: inactive: -1.68, inactive: 0.98 and inactive: -0.0864.
With `CNC(=O)c1ccc2ccn(C3CCN(CCc4c(OC)ccc5c4OC(C)(C)CC5=O)CC3)c2c1`, the TEAD-luciferase reporter activity by setting is: (compound concentration: 200 nM) inactive: 0.371; (compound concentration: 2 uM) inactive: -0.755; (compound concentration: 10 uM) inactive: 3.27.
With `COc1cc(OCc2nc(N3CCOCC3)sc2C)c2cc(-c3cn4nc(OC)sc4n3)oc2c1`, the TEAD-luciferase reporter activity is inactive: -0.515 (compound concentration: 200 nM), inactive: -0.813 (compound concentration: 2 uM) and inactive: 2.78 (compound concentration: 10 uM).
Turning to `NC(=O)CCN1CCN(C2Cc3cc(Cl)ccc3Sc3cc(F)ccc32)CC1` (stereo not given), the TEAD-luciferase reporter activity is, setting by setting: (compound concentration: 200 nM) inactive: -0.57; (compound concentration: 2 uM) inactive: -0.231; (compound concentration: 10 uM) inactive: -1.54.
For `OC1CCN(c2ccc(-c3ccccc3Cl)nn2)CC1` [Lodaxaprine], in that order: inactive: -0.0502, inactive: 0.211 and inactive: 1.24.
For `CCOC(=O)C1=Cc2ccccc2OC1C(F)(F)F` (stereo not given), the TEAD-luciferase reporter activity by setting is: (compound concentration: 200 nM) inactive: 0.307; (compound concentration: 2 uM) inactive: -0.0353; (compound concentration: 10 uM) inactive: 0.829.
On the same counts, the results for `CC(C)(Cc1ccc2ccccc2c1)NC[C@@H](O)COc1cccc(Cl)c1C#N` are inactive: -2.81, inactive: -1.75 and inactive: -1.02.
On the same counts, the results for `Cc1c(C(=O)NCCC(=O)O)s/c(=N/C(=O)c2ccc(C(=N)NCCCC(=O)O)cc2)n1C` are inactive: -0.776, inactive: 2.93 and inactive: -1.01.
On the same counts, the results for `CCCCCC1C(=O)N2C=C(c3ccccc3)c3ccccc3N2C1=O` (stereo not given) are inactive: 0.832, inactive: -1.63 and inactive: -1.86.
`COc1cc2c(N3CCN(C(=O)Nc4ccc(OC(C)C)cc4)CC3)ncnc2cc1OCCCN1CCCCC1` [tandutinib]: the TEAD-luciferase reporter activity (compound concentration: 200 nM) is inactive: 0.404, the TEAD-luciferase reporter activity (compound concentration: 2 uM) was inactive: -0.493 and the TEAD-luciferase reporter activity (compound concentration: 10 uM) was inactive: 1.34.
For `O=C(C=C(O)c1nnc[nH]1)c1ccc(Cc2ccc(F)cc2)o1`, in that order: inactive: -0.457, inactive: 1.27 and inactive: 0.562.
Turning to `NC[C@@H]1O[C@H](O[C@H]2[C@@H](O)[C@H](O[C@@H]3[C@@H](O)[C@H](N)C[C@H](N)[C@H]3O[C@H]3O[C@H](CN)[C@@H](O)[C@H](O)[C@H]3N)O[C@@H]2CO)[C@H](N)[C@@H](O)[C@@H]1O` [Neomycin sulfate], the TEAD-luciferase reporter activity (compound concentration: 200 nM) is inactive: -0.385, the TEAD-luciferase reporter activity (compound concentration: 2 uM) was inactive: -1.14 and the TEAD-luciferase reporter activity (compound concentration: 10 uM) was inactive: -0.379.
On the same counts, the results for `c1ccc2c(c1)OCC(CN1CCCCC1)O2` (stereo not given) are inactive: 0.077, inactive: -0.326 and inactive: -0.943.
For `N#CC1(c2ccc(NC(=O)c3cccnc3NCc3ccncc3)cc2)CCCC1` [Apatinib mesylate], in that order: inactive: -1.76, inactive: 0.141 and inactive: -0.0397.
On to `CC[C@H](C)[C@@H]1NC(=O)[C@H](Cc2c[nH]c3ccccc23)NC(=O)[C@H]([C@@H](C)O)NC(=O)[C@@H]2CCCN2C(=O)[C@H]2CCCN2C(=O)[C@H](CO)NC(=O)[C@H](C)NC(=O)[C@H](CCN)NC(=O)[C@H](CCN)NC(=O)[C@H](Cc2c[nH]c3ccccc23)NC(=O)[C@H](CCN)NC(=O)[C@@H](CCN)NC(=O)[C@H](CCCN)NC(=O)[C@H](CCN)NC1=O` [Murepavadin], for which the TEAD-luciferase reporter activity by setting is: (compound concentration: 200 nM) inactive: 0.163; (compound concentration: 2 uM) inactive: 3.02; (compound concentration: 10 uM) inactive: -1.31.
For `CN[C@@H]1COc2ccccc2[C@H](O)C1` [exepanol], the TEAD-luciferase reporter activity is inactive: -0.36 (compound concentration: 200 nM), inactive: 0.475 (compound concentration: 2 uM) and active: 10.7 (compound concentration: 10 uM).
For `COc1ccc2c(c1OC)CCC(NC(C)C(O)c1ccc(O)cc1)C2` (stereo not given), in that order: inactive: -0.843, inactive: -0.588 and inactive: 0.321.
With `CC/C=C/CC(=O)N[C@@H](Cc1ccc(O)cc1)C(=O)N[C@@H](C)C(=O)N[C@@H](CC(=O)O)C(=O)N[C@@H](C)C(=O)N[C@H](C(=O)N[C@@H](Cc1ccccc1)C(=O)N[C@H](C(=O)N[C@@H](CC(N)=O)C(=O)N[C@@H](CO)C(=O)N[C@@H](Cc1ccc(O)cc1)C(=O)N[C@@H](CCCNC(=N)N)C(=O)N[C@@H](CCCCN)C(=O)N[C@H](C(=O)NCC(=O)N[C@@H](CC(C)C)C(=O)N[C@@H](CCC(N)=O)C(=O)N[C@@H](CC(C)C)C(=O)N[C@@H](CO)C(=O)N[C@@H](C)C(=O)N[C@@H](CCCNC(=N)N)C(=O)N[C@@H](CCCCN)C(=O)N[C@@H](CC(C)C)C(=O)N[C@@H](CC(C)C)C(=O)N[C@@H](CCC(N)=O)C(=O)N[C@@H](CC(=O)O)C(=O)N[C@H](C(=O)N[C@@H](CCSC)C(=O)N[C@@H](CO)C(=O)N[C@@H](CCCNC(=N)N)C(=O)N[C@@H](CCC(N)=O)C(=O)NCC(=O)N[C@@H](CCC(N)=O)C(=O)N[C@@H](CCC(=O)O)C(=O)N[C@@H](CO)C(=O)N[C@@H](CC(N)=O)C(=O)N[C@@H](CCC(N)=O)C(=O)N[C@@H](CCC(=O)O)C(=O)N[C@@H](CCCNC(=N)N)C(=O)N[C@@H](C)C(=O)NCC(=O)N[C@@H](CCCNC(=N)N)C(=O)N[C@@H](C)C(=O)N[C@@H](CCCNC(=N)N)C(=O)N[C@@H](CC(C)C)C(N)=O)[C@@H](C)CC)C(C)C)[C@@H](C)O)[C@@H](C)CC` [Tesamorelin], the TEAD-luciferase reporter activity is inactive: -1.35 (compound concentration: 200 nM), inactive: -0.528 (compound concentration: 2 uM) and inactive: 0.819 (compound concentration: 10 uM).
